Assay results published in article doi:10.1101/2021.04.23.441060.
No constants are given. Whether binding was seen depends on the method and setting. In cells and extracts the contact can be indirect. Some entries that bind do so weakly or less than the wild type.

The chains behind the UniProt entries cited, without tags or fusion partners.
UniProt P48432: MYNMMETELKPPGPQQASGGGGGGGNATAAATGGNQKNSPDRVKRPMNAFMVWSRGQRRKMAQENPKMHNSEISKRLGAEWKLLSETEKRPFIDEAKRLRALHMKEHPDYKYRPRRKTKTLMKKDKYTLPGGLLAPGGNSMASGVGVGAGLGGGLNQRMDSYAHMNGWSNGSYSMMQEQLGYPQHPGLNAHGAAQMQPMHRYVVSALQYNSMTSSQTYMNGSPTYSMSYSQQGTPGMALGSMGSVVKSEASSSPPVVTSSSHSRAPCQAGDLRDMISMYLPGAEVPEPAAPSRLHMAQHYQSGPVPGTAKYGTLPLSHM
UniProt O09106: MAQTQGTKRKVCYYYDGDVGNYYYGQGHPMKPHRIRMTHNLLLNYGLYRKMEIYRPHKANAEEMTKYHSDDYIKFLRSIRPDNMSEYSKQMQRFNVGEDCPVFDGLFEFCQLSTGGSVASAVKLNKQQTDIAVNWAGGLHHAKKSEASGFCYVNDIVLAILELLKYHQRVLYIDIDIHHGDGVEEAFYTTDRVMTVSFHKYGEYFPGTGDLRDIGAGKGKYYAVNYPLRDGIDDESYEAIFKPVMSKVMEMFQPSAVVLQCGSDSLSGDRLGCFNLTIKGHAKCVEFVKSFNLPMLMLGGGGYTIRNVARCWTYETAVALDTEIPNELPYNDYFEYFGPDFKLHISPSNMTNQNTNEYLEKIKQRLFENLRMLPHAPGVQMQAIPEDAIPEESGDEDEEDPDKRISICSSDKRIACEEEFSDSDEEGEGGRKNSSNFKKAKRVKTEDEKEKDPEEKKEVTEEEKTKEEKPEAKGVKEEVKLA
UniProt P70288: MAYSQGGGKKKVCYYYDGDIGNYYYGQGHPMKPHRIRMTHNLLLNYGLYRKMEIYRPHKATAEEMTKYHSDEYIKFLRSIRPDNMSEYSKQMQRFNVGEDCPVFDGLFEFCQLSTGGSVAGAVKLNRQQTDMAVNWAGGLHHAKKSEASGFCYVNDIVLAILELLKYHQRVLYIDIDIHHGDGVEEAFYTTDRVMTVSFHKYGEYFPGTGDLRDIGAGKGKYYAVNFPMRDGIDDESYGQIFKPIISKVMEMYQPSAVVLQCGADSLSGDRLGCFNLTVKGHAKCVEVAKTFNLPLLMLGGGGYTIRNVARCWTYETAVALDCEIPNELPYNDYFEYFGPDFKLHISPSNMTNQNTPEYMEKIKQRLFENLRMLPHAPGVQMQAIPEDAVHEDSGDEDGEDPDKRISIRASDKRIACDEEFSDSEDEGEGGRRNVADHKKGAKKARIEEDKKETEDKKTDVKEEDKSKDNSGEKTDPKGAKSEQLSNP
UniProt Q08122: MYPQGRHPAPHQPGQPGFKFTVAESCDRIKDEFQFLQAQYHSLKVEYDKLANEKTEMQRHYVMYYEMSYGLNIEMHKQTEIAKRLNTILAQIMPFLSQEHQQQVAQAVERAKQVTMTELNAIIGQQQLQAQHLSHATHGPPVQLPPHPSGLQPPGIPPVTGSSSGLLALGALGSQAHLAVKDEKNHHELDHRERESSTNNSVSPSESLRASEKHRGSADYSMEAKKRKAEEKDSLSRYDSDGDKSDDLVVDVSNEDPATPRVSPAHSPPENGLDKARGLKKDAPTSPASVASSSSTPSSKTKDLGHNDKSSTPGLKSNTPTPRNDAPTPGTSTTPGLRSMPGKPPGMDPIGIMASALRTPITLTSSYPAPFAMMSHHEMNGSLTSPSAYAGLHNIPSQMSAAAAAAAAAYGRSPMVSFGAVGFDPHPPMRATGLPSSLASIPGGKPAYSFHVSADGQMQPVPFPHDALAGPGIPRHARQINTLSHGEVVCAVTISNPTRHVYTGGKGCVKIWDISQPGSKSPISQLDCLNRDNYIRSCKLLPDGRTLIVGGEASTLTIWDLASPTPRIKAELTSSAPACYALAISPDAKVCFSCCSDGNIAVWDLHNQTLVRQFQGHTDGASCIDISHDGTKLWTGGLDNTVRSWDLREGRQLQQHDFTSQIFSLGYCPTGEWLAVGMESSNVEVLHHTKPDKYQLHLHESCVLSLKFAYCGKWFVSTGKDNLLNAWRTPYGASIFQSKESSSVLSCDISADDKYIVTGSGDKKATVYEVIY
UniProt P11103: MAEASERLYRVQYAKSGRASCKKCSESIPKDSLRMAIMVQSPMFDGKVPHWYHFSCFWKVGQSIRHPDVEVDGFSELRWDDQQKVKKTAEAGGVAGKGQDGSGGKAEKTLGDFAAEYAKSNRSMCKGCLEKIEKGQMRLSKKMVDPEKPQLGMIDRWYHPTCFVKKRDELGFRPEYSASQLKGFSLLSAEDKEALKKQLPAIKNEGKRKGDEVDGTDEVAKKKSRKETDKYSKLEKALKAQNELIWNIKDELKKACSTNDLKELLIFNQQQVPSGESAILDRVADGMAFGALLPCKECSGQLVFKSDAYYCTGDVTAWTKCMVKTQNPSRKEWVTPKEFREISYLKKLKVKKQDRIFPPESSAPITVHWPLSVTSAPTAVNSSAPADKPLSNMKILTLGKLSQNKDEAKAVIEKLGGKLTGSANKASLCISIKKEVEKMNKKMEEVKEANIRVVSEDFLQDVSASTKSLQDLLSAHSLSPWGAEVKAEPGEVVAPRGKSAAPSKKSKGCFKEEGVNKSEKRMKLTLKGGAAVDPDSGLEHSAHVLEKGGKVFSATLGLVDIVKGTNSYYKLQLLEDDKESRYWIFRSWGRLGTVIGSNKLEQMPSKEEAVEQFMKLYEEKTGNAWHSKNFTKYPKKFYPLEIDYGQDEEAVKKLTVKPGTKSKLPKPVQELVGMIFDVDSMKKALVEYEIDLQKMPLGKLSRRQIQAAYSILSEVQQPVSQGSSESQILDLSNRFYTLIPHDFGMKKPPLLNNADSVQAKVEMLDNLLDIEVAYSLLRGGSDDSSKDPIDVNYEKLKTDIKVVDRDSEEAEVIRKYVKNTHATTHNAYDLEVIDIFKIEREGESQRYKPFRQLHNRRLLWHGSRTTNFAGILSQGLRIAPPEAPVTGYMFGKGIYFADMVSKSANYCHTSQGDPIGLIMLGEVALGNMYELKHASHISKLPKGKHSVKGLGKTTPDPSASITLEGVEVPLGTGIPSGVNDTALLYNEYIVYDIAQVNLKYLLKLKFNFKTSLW

Target: Sox2 (not stated (endogenous in primary rodent OLs; mouse and rat cultures were made)) (UniProt P48432)
Test: co-IP

| binding | Substance |
| --- | --- |
| binds | HDAC1 (from UniProt O09106 1-482) (enzyme) |
| binds | HDAC2 (from UniProt P70288 1-488) (enzyme) |
| binds | TLE3 (from UniProt Q08122 1-772) |
| binds | poly (ADP-ribose) polymerase 1 (PARP1) (from UniProt P11103 1-1013) (enzyme) |
